Consider two substances from article PMC6423746.

Protein sequences, listed by entry. Tags and fused reporters are not part of them.
UniProt P28482: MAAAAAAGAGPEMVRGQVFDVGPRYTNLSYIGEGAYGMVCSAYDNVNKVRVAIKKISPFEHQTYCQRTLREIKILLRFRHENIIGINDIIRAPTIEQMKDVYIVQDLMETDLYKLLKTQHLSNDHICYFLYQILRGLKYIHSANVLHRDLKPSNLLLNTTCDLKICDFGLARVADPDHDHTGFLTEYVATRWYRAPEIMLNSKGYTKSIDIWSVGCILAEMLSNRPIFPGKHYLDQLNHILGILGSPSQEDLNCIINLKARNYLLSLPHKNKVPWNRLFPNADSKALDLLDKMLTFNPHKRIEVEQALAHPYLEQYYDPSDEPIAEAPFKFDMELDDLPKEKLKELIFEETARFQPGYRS
UniProt P27361: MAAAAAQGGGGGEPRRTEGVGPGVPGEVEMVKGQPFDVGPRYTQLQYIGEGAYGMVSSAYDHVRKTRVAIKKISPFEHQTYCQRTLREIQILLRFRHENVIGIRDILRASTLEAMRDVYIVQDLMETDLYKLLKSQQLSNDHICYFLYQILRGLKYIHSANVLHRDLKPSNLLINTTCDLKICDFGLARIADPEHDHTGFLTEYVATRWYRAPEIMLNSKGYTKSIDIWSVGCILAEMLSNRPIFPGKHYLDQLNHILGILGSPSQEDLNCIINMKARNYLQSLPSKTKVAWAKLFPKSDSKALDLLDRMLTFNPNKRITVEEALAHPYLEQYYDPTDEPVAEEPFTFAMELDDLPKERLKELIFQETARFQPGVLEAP

The target in this test is T1, Mitogen-activated protein kinase phosphatase-4 (MKP-4) (human (endogenous in HCC tissue and HepG2)) (UniProt Q99956).
T1 sequence: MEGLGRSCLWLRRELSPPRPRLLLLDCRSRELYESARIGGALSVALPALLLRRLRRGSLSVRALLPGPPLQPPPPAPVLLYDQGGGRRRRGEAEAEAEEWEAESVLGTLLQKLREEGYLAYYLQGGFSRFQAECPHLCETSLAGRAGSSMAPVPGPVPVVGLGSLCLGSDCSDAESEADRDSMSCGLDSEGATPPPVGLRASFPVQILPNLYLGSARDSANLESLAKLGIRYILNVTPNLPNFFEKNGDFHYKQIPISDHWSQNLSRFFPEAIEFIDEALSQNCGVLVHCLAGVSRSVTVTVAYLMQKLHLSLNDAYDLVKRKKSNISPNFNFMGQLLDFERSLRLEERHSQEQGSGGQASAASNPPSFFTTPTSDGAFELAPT
Description: affinity purification with mass spectrometry; HCC tissue lysate (25 mM Tris-HCl pH 7.5, 150 mM NaCl, 1 mM EDTA, 1% NP-40) immunoprecipitated with anti-MKP-4 antibody at 4 °C overnight, protein G Sepharose; gel bands analysed on an LTQ mass spectrometer.

These are yes or no findings as the source states them, for the method shown. In cells and extracts the contact can be indirect. These calls come from enrichment with a bait or labelling near it, and not all partners need be listed.

For the substance “Extracellular signal-regulated kinase 2 (ERK2) (from UniProt P28482 1-360) (enzyme)”, the binding entry is given as “binds”.

For the substance “Extracellular signal-regulated kinase 1 (ERK1) (from UniProt P27361 1-379) (enzyme)”, the binding entry is on record as “binds”.
